Some of the results follow.
Legend:
Experiment in all cases: log2 fold change, soluble protein after heating vs DMSO (PISA); higher = thermal stabilisation; K562 cells, 10 uM, 30 min; active = over 0.2 and 3.5 SD of the protein, either way, in both replicates (recomputed)
[1] = compound: CC[C@@H]1C(=O)N(C)c2cnc(Nc3ccc(C(=O)NC4CCN(C)CC4)cc3OC)nc2N1C1CCCC1
Procedure, shortened: (§1)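 K562 cells at 2×10^6 cells/mL were exposed to 10 μM compound for 30 min, then aliquots were heated for 3 min across 48°C-58°C, pooled, and extracted in PBS containing 0.5% NP-40 at 4°C. The supernatant after 21,000xg for 90 min was taken as soluble protein and measured by TMTpro 16plex LC-MS/MS with channel sums equalised. Thermal stability is reported relative to control samples, with values from duplicates. Fold changes are given on a log2 scale.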

Protein sequences, listed by entry. Tags and fused reporters are not part of them. Lines headed by an entry give the natural chain unless they say otherwise; changes in a name come on top.
UniProt O75915: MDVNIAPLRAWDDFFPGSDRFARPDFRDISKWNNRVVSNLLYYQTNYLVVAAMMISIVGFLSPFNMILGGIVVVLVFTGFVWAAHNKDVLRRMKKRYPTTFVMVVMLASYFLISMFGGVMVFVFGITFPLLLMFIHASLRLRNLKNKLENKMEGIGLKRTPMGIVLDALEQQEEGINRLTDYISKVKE
UniProt P23634: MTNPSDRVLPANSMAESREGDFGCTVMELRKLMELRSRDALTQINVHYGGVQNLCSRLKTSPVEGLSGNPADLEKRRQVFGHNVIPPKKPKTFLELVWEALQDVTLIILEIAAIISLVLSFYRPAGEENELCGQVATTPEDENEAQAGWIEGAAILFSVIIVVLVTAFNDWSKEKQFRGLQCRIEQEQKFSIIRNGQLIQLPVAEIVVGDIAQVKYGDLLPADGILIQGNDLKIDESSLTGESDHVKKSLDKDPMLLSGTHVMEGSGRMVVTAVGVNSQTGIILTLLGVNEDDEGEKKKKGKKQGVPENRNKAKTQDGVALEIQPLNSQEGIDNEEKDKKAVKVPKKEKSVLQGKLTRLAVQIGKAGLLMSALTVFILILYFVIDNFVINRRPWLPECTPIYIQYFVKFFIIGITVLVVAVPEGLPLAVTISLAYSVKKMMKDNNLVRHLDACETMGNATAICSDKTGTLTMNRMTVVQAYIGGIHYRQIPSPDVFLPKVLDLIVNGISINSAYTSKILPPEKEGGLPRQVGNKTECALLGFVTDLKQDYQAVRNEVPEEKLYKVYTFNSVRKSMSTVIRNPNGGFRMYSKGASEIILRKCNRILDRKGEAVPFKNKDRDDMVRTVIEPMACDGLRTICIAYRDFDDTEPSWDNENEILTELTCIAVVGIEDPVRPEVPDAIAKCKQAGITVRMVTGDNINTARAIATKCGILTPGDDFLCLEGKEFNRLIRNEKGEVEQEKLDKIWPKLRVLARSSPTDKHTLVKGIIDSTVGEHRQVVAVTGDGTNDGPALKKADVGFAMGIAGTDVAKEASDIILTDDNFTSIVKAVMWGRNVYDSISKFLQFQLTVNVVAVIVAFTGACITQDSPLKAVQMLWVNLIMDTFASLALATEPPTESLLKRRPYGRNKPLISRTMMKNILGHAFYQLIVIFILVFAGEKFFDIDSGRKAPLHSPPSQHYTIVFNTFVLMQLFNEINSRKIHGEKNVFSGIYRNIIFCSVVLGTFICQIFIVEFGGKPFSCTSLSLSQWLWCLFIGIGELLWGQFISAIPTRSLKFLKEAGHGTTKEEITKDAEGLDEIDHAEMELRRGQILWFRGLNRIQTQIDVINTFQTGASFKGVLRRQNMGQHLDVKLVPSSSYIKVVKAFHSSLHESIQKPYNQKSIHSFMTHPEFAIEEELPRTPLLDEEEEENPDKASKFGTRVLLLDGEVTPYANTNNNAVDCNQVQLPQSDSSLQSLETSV
UniProt P38606, whole entry, looked up: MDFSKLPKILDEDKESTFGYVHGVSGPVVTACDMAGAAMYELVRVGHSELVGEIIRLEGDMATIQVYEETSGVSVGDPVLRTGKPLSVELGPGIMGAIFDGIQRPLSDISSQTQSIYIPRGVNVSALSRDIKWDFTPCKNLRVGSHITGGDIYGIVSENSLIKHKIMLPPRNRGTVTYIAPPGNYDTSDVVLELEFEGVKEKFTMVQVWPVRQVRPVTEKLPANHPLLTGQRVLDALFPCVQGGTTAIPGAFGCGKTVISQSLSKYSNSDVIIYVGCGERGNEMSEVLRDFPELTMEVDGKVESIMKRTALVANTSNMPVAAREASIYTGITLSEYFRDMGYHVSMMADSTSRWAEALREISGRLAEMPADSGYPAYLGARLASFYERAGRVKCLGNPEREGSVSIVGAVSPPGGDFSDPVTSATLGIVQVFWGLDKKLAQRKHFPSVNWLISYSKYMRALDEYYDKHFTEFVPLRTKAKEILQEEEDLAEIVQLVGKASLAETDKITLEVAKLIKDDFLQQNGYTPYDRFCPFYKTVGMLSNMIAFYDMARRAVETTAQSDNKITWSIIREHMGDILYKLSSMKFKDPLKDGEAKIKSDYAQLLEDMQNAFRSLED
UniProt P06576, whole entry, looked up: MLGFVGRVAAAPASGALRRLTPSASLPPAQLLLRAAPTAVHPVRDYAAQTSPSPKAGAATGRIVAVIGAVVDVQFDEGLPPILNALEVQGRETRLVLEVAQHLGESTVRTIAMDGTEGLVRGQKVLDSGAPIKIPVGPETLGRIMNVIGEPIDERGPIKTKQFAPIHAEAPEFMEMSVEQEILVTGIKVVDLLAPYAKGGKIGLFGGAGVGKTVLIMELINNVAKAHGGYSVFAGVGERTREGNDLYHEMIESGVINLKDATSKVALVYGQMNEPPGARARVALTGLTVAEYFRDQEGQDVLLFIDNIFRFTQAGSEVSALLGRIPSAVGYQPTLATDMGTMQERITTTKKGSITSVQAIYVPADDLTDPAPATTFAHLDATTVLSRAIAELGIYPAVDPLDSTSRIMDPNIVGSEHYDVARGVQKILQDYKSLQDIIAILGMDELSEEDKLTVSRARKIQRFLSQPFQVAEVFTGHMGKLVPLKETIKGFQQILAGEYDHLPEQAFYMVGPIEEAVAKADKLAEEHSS
UniProt Q04656: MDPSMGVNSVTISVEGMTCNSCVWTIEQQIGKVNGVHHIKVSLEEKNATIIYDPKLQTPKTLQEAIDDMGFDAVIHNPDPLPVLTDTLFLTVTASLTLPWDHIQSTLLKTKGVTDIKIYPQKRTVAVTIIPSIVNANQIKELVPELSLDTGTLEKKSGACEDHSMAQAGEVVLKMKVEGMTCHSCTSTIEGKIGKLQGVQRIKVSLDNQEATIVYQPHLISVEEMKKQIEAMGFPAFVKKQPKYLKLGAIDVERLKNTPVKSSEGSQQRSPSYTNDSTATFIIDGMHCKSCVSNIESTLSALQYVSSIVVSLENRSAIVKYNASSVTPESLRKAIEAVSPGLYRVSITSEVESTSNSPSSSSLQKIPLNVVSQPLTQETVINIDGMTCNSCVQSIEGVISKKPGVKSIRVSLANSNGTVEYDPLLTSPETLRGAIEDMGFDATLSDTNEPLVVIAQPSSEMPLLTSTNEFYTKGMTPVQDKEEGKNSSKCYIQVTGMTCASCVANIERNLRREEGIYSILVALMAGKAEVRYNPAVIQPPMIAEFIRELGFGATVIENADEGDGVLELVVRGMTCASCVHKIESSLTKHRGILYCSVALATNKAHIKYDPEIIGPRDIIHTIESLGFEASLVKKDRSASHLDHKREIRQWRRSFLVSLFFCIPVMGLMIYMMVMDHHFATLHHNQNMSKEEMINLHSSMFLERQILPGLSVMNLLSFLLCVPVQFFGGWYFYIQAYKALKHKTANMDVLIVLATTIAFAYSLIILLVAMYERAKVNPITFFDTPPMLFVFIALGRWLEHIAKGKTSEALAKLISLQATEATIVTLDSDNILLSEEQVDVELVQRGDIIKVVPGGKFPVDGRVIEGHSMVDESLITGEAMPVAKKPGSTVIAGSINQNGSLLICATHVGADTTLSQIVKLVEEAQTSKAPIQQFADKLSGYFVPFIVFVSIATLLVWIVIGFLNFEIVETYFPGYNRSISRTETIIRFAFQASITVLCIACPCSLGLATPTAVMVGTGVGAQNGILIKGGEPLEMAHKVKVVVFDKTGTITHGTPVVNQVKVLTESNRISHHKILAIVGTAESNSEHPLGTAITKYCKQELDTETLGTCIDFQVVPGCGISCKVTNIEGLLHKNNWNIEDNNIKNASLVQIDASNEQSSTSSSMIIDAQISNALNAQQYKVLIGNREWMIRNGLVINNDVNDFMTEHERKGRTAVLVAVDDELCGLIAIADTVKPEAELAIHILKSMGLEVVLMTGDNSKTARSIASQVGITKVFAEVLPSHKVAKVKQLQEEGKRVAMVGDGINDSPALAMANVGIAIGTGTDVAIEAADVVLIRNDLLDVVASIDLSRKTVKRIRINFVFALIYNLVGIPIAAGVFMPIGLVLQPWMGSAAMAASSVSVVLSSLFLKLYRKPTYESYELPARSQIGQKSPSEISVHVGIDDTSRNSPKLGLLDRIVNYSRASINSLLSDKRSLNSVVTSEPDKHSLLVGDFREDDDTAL
UniProt Q9NVT9: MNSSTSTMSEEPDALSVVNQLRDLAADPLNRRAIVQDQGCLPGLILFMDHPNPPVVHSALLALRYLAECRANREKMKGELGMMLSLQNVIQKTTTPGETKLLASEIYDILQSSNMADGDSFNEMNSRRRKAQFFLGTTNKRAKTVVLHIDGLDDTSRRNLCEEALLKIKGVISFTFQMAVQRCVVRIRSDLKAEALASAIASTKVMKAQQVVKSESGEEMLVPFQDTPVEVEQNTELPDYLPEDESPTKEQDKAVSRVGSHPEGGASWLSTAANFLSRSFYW
UniProt Q12797: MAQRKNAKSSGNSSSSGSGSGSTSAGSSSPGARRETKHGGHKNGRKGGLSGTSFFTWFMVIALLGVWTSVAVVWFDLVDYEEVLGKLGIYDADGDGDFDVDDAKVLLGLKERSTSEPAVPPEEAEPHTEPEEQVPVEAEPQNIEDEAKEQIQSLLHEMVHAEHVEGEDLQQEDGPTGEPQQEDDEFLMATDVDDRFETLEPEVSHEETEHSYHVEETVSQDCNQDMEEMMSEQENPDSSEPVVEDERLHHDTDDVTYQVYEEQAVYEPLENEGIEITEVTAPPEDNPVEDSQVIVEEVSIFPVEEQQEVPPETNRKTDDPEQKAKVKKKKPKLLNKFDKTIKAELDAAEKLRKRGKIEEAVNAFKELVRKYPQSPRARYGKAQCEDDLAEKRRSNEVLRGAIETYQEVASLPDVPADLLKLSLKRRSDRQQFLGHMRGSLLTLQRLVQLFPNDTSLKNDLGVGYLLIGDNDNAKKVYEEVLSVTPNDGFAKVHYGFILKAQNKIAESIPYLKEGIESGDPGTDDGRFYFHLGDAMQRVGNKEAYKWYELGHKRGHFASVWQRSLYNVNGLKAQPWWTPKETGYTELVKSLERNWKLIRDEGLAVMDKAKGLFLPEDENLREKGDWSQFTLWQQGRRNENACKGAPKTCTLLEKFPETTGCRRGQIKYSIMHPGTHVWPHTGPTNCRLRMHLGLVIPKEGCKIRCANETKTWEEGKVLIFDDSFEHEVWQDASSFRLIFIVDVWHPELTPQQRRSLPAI
UniProt Q9H1Y0: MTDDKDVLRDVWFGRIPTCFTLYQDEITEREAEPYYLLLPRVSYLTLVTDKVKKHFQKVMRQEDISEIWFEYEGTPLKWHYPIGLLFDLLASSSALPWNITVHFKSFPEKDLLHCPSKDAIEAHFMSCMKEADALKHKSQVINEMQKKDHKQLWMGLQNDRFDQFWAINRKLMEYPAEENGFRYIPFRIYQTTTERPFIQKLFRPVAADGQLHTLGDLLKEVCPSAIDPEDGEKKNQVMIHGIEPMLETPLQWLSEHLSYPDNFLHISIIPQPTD
UniProt Q8N5M1: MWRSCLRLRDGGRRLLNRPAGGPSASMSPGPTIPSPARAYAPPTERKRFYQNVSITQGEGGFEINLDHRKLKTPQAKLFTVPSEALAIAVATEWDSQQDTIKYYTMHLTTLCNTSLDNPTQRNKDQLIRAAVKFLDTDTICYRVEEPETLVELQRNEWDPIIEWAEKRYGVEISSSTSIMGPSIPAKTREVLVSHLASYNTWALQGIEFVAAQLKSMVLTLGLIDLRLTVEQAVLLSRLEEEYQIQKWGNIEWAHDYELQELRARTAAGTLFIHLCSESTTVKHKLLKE
UniProt P15848: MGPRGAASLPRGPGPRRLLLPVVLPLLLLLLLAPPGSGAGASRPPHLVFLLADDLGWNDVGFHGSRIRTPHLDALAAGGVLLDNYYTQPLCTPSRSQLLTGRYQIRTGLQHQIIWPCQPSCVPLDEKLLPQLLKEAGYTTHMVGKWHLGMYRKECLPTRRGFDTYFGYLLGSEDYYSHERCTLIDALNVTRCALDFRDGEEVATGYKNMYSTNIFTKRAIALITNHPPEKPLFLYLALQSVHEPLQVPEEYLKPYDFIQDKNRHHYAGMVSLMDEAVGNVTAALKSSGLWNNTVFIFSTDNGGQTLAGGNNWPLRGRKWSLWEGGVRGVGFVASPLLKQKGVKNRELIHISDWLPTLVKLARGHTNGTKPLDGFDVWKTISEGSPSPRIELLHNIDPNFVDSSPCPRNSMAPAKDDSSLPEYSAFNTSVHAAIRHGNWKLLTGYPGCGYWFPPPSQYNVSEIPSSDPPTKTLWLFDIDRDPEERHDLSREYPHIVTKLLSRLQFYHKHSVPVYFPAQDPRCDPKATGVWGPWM
UniProt P36404: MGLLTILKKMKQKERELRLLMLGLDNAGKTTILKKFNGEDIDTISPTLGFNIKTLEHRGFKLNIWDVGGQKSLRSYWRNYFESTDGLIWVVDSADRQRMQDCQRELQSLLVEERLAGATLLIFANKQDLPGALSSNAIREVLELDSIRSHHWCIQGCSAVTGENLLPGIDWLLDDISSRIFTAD

volasertib = compound: CC[C@@H]1C(=O)N(C)c2cnc(Nc3ccc(C(=O)N[C@H]4CC[C@H](N5CCN(CC6CC6)CC5)CC4)cc3OC)nc2N1C(C)C [volasertib]
Procedure, shortened: as §1

[2] = compound: CC[C@H](C)N1C=C(C2=C(C=C(C=C21)C3=CN=C(C=C3)N4CCNCC4)C(=O)NCC5=C(C=C(NC5=O)C)C)C
Procedure, shortened: as §1

epoxomicin = compound: CC[C@H](C)[C@@H](C(=O)N[C@@H]([C@@H](C)O)C(=O)N[C@@H](CC(C)C)C(=O)[C@]1(CO1)C)NC(=O)[C@H]([C@@H](C)CC)N(C)C(=O)C [epoxomicin]
Procedure, shortened: as §1

[3] = compound: CCn1c(C(=O)N(C2CC2)C2CC2)cc2c3c(ncn3C)c(Nc3cc(C)n(C)n3)nc21
Procedure, shortened: as §1

[4] = compound: CCn1cc(-c2ccnc3[nH]c(-c4cccc(CN(C)C)c4)cc23)c(-c2ccc(NC(=O)N(C)C)cc2)n1
Procedure, shortened: as §1

[5] = compound: CN(C)CC(=O)Nc1ccc2[nH]c(=O)c3ccccc3c2c1
Procedure, shortened: as §1

rosiglitazone = compound: CN(CCOC1=CC=C(C=C1)C[C@H]2C(=O)NC(=O)S2)C3=CC=CC=N3 (racemic) [rosiglitazone]
Procedure, shortened: as §1

[6] = compound: CN1C2=C(C3=C1C(=O)N(N=C3)CC4=CC(=CC=C4)N)SC(=C2)S(=O)C
Procedure, shortened: as §1

[7] = compound: CN1CCC(CNc2ccc3ncc(-c4cccc(OC(F)(F)F)c4)n3n2)CC1
Procedure, shortened: as §1

saracatinib = compound: CN1CCN(CCOc2cc(OC3CCOCC3)c3c(Nc4c(Cl)ccc5c4OCO5)ncnc3c2)CC1 [saracatinib]
Procedure, shortened: as §1

sotrastaurin = compound: CN1CCN(c2nc(C3=C(c4c[nH]c5ccccc45)C(=O)NC3=O)c3ccccc3n2)CC1 [sotrastaurin]
Procedure, shortened: as §1

alvocidib = compound: CN1CC[C@H](c2c(O)cc(O)c3c(=O)cc(-c4ccccc4Cl)oc23)[C@H](O)C1 [alvocidib]
Procedure, shortened: as §1

Tubastatin A = compound: CN1CCc2c(c3ccccc3n2Cc2ccc(C(=O)NO)cc2)C1 [Tubastatin A]
Procedure, shortened: as §1

[8] = compound: CNC(=O)C1=CC=CC=C1NC2=NC(=NC=C2Cl)NC3=C(C=C(C=C3)N4CCOCC4)OC
Procedure, shortened: as §1

defactinib = compound: CNC(=O)c1ccc(Nc2ncc(C(F)(F)F)c(NCc3nccnc3N(C)S(C)(=O)=O)n2)cc1 [defactinib]
Procedure, shortened: as §1

rucaparib = compound: CNCc1ccc(-c2[nH]c3cc(F)cc4c3c2CCNC4=O)cc1 [rucaparib]
Procedure, shortened: as §1

[9] = compound: CNc1nc(-c2ccc3c(N)n[nH]c3c2)cc(N2C[C@@H](C(=O)NC3CCCCC3)CC[C@H]2C)n1
Procedure, shortened: as §1

encorafenib = compound: COC(=O)N[C@@H](C)CNc1nccc(-c2cn(C(C)C)nc2-c2cc(Cl)cc(NS(C)(=O)=O)c2F)n1 [encorafenib]
Procedure, shortened: as §1

[10] = compound: COC(=O)[C@H](CCSC)NC(=O)C1=C(C=C(C=C1)NC[C@H](CS)N)C2=CC=CC=C2
Procedure, shortened: as §1

Measured: log2 fold change

ARPC2 (UniProt O15144)
inactive: [1] 0.045 | volasertib -0.03 | [2] -0.036 | epoxomicin 0.018 | [3] 0.033 | [4] -0.034 | [5] 0.002 | rosiglitazone -0.016 | [6] -0.045 | [7] 0.004 | saracatinib 0.045 | sotrastaurin 0.032 | alvocidib 0.026 | Tubastatin A -0.018 | [8] 0.043 | defactinib 0.015 | rucaparib -0.056 | [9] -0.061 | encorafenib -0.011 | [10] 0

ARL6IP5 (UniProt O75915)
inactive: [1] 0.105 | volasertib -0.007 | [2] -0.123 | epoxomicin -0.002 | [3] 0.049 | [4] -0.001 | [5] -0.02 | rosiglitazone 0.005 | [6] -0.104 | [7] 0.001 | saracatinib 0.001 | sotrastaurin 0.02 | alvocidib 0.04 | Tubastatin A -0.02 | [8] -0.009 | defactinib -0.019 | rucaparib -0.001 | [9] -0.021 | encorafenib 0.05 | [10] 0.013

ATP5F1A (UniProt P25705)
inactive: [1] 0.027 | volasertib 0.089 | [2] -0.064 | epoxomicin -0.025 | [3] 0.017 | [4] 0.031 | [5] -0.02 | rosiglitazone -0.005 | [6] -0.018 | [7] 0.087 | saracatinib 0.032 | sotrastaurin 0.037 | alvocidib 0.008 | Tubastatin A -0.03 | [8] 0.011 | defactinib 0.022 | rucaparib -0.044 | [9] -0.017 | encorafenib -0.014 | [10] 0.029

ATP2B4 (UniProt P23634)
inactive: [1] 0.079 | volasertib 0.079 | [2] -0.036 | epoxomicin -0.101 | [3] 0.002 | [4] -0.07 | [5] -0.08 | rosiglitazone -0.049 | [6] -0.057 | [7] 0.2 | saracatinib 0.023 | sotrastaurin 0.08 | alvocidib 0.003 | Tubastatin A -0.036 | [8] -0.033 | defactinib -0.012 | rucaparib -0.015 | [9] 0.03 | encorafenib 0.011 | [10] 0.012

ATP1A3 isoform 3 (UniProt P13637)
inactive: [1] 0.093 | volasertib 0.073 | [2] -0.065 | epoxomicin -0.032 | [3] 0.056 | [4] -0.022 | [5] -0.043 | rosiglitazone -0.027 | [6] -0.061 | [7] 0.163 | saracatinib 0.01 | sotrastaurin 0.031 | alvocidib 0.068 | Tubastatin A -0.075 | [8] -0.041 | defactinib -0.039 | rucaparib -0.02 | [9] -0.021 | encorafenib -0.005 | [10] 0.048

ATP6V1A (UniProt P38606)
inactive: [1] -0.076 | volasertib -0.038 | [2] -0.012 | epoxomicin 0.015 | [3] 0.049 | [4] -0.107 | [5] -0.008 | rosiglitazone 0.005 | [6] 0 | [7] -0.076 | saracatinib -0.03 | sotrastaurin 0.038 | alvocidib -0.004 | Tubastatin A 0.022 | [8] -0.043 | defactinib -0.017 | rucaparib 0.012 | [9] 0.014 | encorafenib 0.015 | [10] -0.004

ATP5F1B (UniProt P06576)
inactive: [1] 0 | volasertib 0.072 | [2] -0.049 | epoxomicin -0.007 | [3] 0.006 | [4] 0.006 | [5] -0.023 | rosiglitazone -0.023 | [6] -0.008 | [7] 0.05 | saracatinib 0.019 | sotrastaurin 0.053 | alvocidib 0.005 | Tubastatin A -0.009 | [8] 0.002 | defactinib 0.003 | rucaparib -0.038 | [9] -0.026 | encorafenib -0.02 | [10] 0.014

ATP7A isoform 3 (UniProt Q04656)
inactive: [1] 0.001 | volasertib -0.109 | [2] -0.027 | epoxomicin -0.02 | [3] -0.022 | [4] -0.016 | [5] 0.01 | rosiglitazone 0.016 | [6] -0.03 | [7] 0.086 | saracatinib 0.001 | sotrastaurin -0.009 | alvocidib -0.036 | Tubastatin A -0.025 | [8] 0.039 | defactinib -0.024 | rucaparib -0.026 | [9] 0.035 | encorafenib 0.045 | [10] 0.014

ARMC1 (UniProt Q9NVT9)
inactive: [1] -0.061 | volasertib -0.093 | [2] 0.039 | epoxomicin 0.042 | [3] -0.034 | [4] -0.031 | [5] 0.048 | rosiglitazone 0.053 | [6] -0.066 | [7] -0.181 | saracatinib 0.034 | sotrastaurin -0.086 | alvocidib -0.039 | Tubastatin A 0.015 | [8] -0.013 | defactinib -0.048 | rucaparib -0.033 | [9] -0.008 | encorafenib 0.053 | [10] -0.04

ASPH (UniProt Q12797)
inactive: [1] 0.109 | volasertib 0.064 | [2] -0.005 | epoxomicin -0.113 | [3] 0.026 | [4] 0.097 | [5] -0.061 | rosiglitazone -0.052 | [6] 0.086 | [7] 0.129 | saracatinib -0.009 | sotrastaurin -0.088 | alvocidib 0.132 | Tubastatin A 0.037 | [8] -0.016 | defactinib 0.049 | rucaparib 0.031 | [9] -0.013 | encorafenib 0.048 | [10] -0.056

ATG5 (UniProt Q9H1Y0)
inactive: [1] -0.082 | volasertib -0.068 | [2] 0.064 | epoxomicin 0.121 | [3] 0.037 | [4] -0.037 | [5] -0.034 | rosiglitazone 0.007 | [6] -0.013 | [7] -0.009 | saracatinib -0.007 | sotrastaurin -0.03 | alvocidib -0.037 | Tubastatin A -0.009 | [8] -0.047 | defactinib 0.022 | rucaparib -0.039 | [9] 0.021 | encorafenib 0.037 | [10] -0.011

ATP11B (UniProt Q9Y2G3)
inactive: [1] 0.055 | volasertib 0.023 | [2] -0.012 | epoxomicin -0.014 | [3] 0.025 | [4] -0.005 | [5] -0.044 | rosiglitazone -0.012 | [6] -0.021 | [7] -0.089 | saracatinib 0.031 | sotrastaurin 0.031 | alvocidib 0.025 | Tubastatin A -0.011 | [8] 0.006 | defactinib 0.011 | rucaparib -0.02 | [9] -0.014 | encorafenib -0.014 | [10] 0.012

ATPAF2 (UniProt Q8N5M1)
inactive: [1] 0.121 | volasertib 0 | [2] -0.024 | epoxomicin -0.043 | [3] -0.004 | [4] 0.052 | [5] -0.005 | rosiglitazone 0.03 | [6] 0.032 | [7] 0.034 | saracatinib 0.039 | sotrastaurin 0.057 | alvocidib -0.038 | Tubastatin A -0.076 | [8] -0.035 | defactinib -0.028 | rucaparib -0.025 | [9] 0.022 | encorafenib -0.041 | [10] -0.009

Quoted from the entries so far (2 entries):
ASPH (UniProt Q12797)
inactive: [1] 0.109 | volasertib 0.064 | [2] -0.005 | epoxomicin -0.113 | [3] 0.026 | [4] 0.097 | [5] -0.061 | rosiglitazone -0.052 | [6] 0.086 | [7] 0.129 | saracatinib -0.009 | sotrastaurin -0.088 | alvocidib 0.132 | Tubastatin A 0.037 | [8] -0.016 | defactinib 0.049 | rucaparib 0.031 | [9] -0.013 | encorafenib 0.048 | [10] -0.056

ATG5 (UniProt Q9H1Y0)
inactive: [1] -0.082 | volasertib -0.068 | [2] 0.064 | epoxomicin 0.121 | [3] 0.037 | [4] -0.037 | [5] -0.034 | rosiglitazone 0.007 | [6] -0.013 | [7] -0.009 | saracatinib -0.007 | sotrastaurin -0.03 | alvocidib -0.037 | Tubastatin A -0.009 | [8] -0.047 | defactinib 0.022 | rucaparib -0.039 | [9] 0.021 | encorafenib 0.037 | [10] -0.011

Following part

ATN1 (UniProt P54259)
inactive: [1] -0.001 | volasertib -0.03 | [2] -0.048 | epoxomicin 0.012 | [3] 0.009 | [4] 0.022 | [5] -0.018 | rosiglitazone -0.017 | [6] -0.025 | [7] 0.033 | saracatinib 0.054 | sotrastaurin -0.132 | alvocidib 0.128 | Tubastatin A 0.046 | [8] -0.034 | defactinib -0.033 | rucaparib 0.019 | [9] -0.01 | encorafenib 0.063 | [10] -0.008

ARSB (UniProt P15848)
inactive: [1] -0.048 | volasertib -0.002 | [2] -0.076 | epoxomicin -0.018 | [3] 0.062 | [4] 0 | [5] 0.036 | rosiglitazone 0.011 | [6] 0.096 | [7] -0.168 | saracatinib -0.077 | sotrastaurin 0.011 | alvocidib 0.015 | Tubastatin A 0.039 | [8] 0.026 | defactinib -0.038 | rucaparib -0.128 | [9] -0.05 | encorafenib -0.022 | [10] -0.028

ARL2 (UniProt P36404)
inactive: [1] 0.016 | volasertib 0.12 | [2] -0.026 | epoxomicin 0.095 | [3] 0.012 | [4] -0.003 | [5] 0.016 | rosiglitazone 0.016 | [6] -0.069 | [7] -0.112 | saracatinib 0.065 | sotrastaurin 0.02 | alvocidib -0.013 | Tubastatin A 0.031 | [8] -0.034 | defactinib -0.031 | rucaparib -0.033 | [9] -0.008 | encorafenib 0.006 | [10] -0.039
